Reference: PubChem BioAssay AID1259254 (NCATS, 2017)
Shown is an unselected part of about 59,000 reagents tested. About 1,550 of all reagents (2.6%) count as active. 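G2 share is only a proxy for re-replication; each gene was hit by three separate siRNAs, and active genes were retested.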 Raw values are not corrected between plates. Reagents against one gene are numbered here. No sequences are given here. Not stated in the record: the amount of reagent.

- Screen: 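Gene knock-downs that lead to re-replication, shown by excess G2 DNA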 (primary screen)
- Cell system: human HCT116 colorectal cancer cells
- Reagent: single siRNA against human genes
- Time to read-out: 3 days
- Measurement: 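Imaged Hoechst DNA stain sorts each cell into a cycle phase by DNA amount; per plate, G2 fraction set to 0% for non-targeting and 100% for GMNN siRNA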
- Reading the numbers: G2 robust z-score and G2 cells, % of GMNN control: higher = more G2 cells, more excess DNA replication; raw share of cells in G2: higher = larger share of cells with G2 DNA content
- Active means: 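Active siRNAs have a G2 robust z of 5 or more median absolute deviations over the median, which in these data means about 38% or higher of GMNN control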

target | reagent no. | G2 robust z-score | G2 cells, % of GMNN control | raw share of cells in G2 (%) | Call
CHRNA9 (cholinergic receptor nicotinic alpha 9 subunit) | 1 | -0.672 | -1.76 | 4.65 | inactive
CHRNA9 (cholinergic receptor nicotinic alpha 9 subunit) | 2 | 0.373 | 5.59 | 6.67 | inactive
CHRNA9 (cholinergic receptor nicotinic alpha 9 subunit) | 3 | 0.562 | 6.92 | 7.08 | inactive
DSCR4 (Down syndrome critical region 4) | 1 | 2.05 | 17.4 | 13.2 | inactive
DSCR4 (Down syndrome critical region 4) | 2 | -0.101 | 2.26 | 4.89 | inactive
DSCR4 (Down syndrome critical region 4) | 3 | 0.0432 | 3.27 | 4.6 | inactive
LIPC (lipase C, hepatic type) | 1 | -0.22 | 1.42 | 5.91 | inactive
LIPC (lipase C, hepatic type) | 2 | 0.00173 | 2.98 | 4.18 | inactive
LIPC (lipase C, hepatic type) | 3 | -0.117 | 2.14 | 6.32 | inactive
ZDHHC17 (zDHHC palmitoyltransferase 17) | 1 | -0.941 | -3.65 | 4.9 | inactive
ZDHHC17 (zDHHC palmitoyltransferase 17) | 2 | -0.394 | 0.195 | 4.22 | inactive
ZDHHC17 (zDHHC palmitoyltransferase 17) | 3 | 7.63 | 56.6 | 23.3 | active
MAN2B2 (mannosidase alpha class 2B member 2) | 1 | 3.82 | 29.9 | 14.1 | inactive
MAN2B2 (mannosidase alpha class 2B member 2) | 2 | 0.718 | 8.02 | 9.59 | inactive
MAN2B2 (mannosidase alpha class 2B member 2) | 3 | -1.34 | -6.46 | 1.99 | inactive
TRIB3 (tribbles pseudokinase 3) | 1 | -1.14 | -5.07 | 2.06 | inactive
TRIB3 (tribbles pseudokinase 3) | 2 | -0.935 | -3.61 | 4.47 | inactive
TRIB3 (tribbles pseudokinase 3) | 3 | 2.92 | 23.5 | 13.8 | inactive
PYCR2 (pyrroline-5-carboxylate reductase 2) | 1 | -0.588 | -1.17 | 5.63 | inactive
PYCR2 (pyrroline-5-carboxylate reductase 2) | 2 | -1.05 | -4.4 | 2.55 | inactive
PYCR2 (pyrroline-5-carboxylate reductase 2) | 3 | -0.736 | -2.21 | 3.45 | inactive
DIRAS2 (DIRAS family GTPase 2) | 1 | 1.82 | 15.8 | 13.1 | inactive
DIRAS2 (DIRAS family GTPase 2) | 2 | -1.16 | -5.2 | 2.32 | inactive
DIRAS2 (DIRAS family GTPase 2) | 3 | -1.02 | -4.19 | 2.19 | inactive
TM9SF1 (transmembrane 9 superfamily member 1) | 1 | -0.885 | -3.26 | 2.79 | inactive
TM9SF1 (transmembrane 9 superfamily member 1) | 2 | 0.42 | 5.92 | 8.81 | inactive
TM9SF1 (transmembrane 9 superfamily member 1) | 3 | -1.23 | -5.7 | 3.22 | inactive
ZNF835 (zinc finger protein 835) | 1 | -0.934 | -3.61 | 2.55 | inactive
ZNF835 (zinc finger protein 835) | 2 | -0.499 | -0.545 | 2.83 | inactive
ZNF835 (zinc finger protein 835) | 3 | 0.828 | 8.79 | 5.71 | inactive
PCLO (piccolo presynaptic cytomatrix protein) | 1 | 1.13 | 10.9 | 11.1 | inactive
PCLO (piccolo presynaptic cytomatrix protein) | 2 | 1.42 | 12.9 | 8.49 | inactive
PCLO (piccolo presynaptic cytomatrix protein) | 3 | -0.51 | -0.618 | 3.79 | inactive
ADAMTSL5 (ADAMTS like 5) | 1 | -0.434 | -0.086 | 3.96 | inactive
ADAMTSL5 (ADAMTS like 5) | 2 | -0.112 | 2.18 | 4.21 | inactive
ADAMTSL5 (ADAMTS like 5) | 3 | -0.744 | -2.27 | 3.28 | inactive
ARL4A (ARF like GTPase 4A) | 1 | 2.38 | 19.7 | 12.7 | inactive
ARL4A (ARF like GTPase 4A) | 2 | -0.515 | -0.659 | 4.95 | inactive
ARL4A (ARF like GTPase 4A) | 3 | 0.777 | 8.43 | 6.08 | inactive
PARD3 (par-3 family cell polarity regulator) | 1 | -0.227 | 1.37 | 3.28 | inactive
PARD3 (par-3 family cell polarity regulator) | 2 | 0.968 | 9.78 | 10.3 | inactive
PARD3 (par-3 family cell polarity regulator) | 3 | -0.347 | 0.525 | 3.8 | inactive
NEK9 (NIMA related kinase 9) | 1 | -0.509 | -0.616 | 5.4 | inactive
NEK9 (NIMA related kinase 9) | 2 | 1.71 | 15 | 10.6 | inactive
NEK9 (NIMA related kinase 9) | 3 | 0.0178 | 3.09 | 4.67 | inactive
MYH13 (myosin heavy chain 13) | 1 | -0.277 | 1.02 | 5 | inactive
MYH13 (myosin heavy chain 13) | 2 | 4.71 | 36.1 | 17.6 | inactive
MYH13 (myosin heavy chain 13) | 3 | -0.548 | -0.89 | 4.95 | inactive
GLS2 (glutaminase 2) | 1 | 2.33 | 19.4 | 15 | inactive
GLS2 (glutaminase 2) | 2 | 2.1 | 17.7 | 9.79 | inactive
GLS2 (glutaminase 2) | 3 | -0.0503 | 2.61 | 5.06 | inactive
SSX2IPP1 (SSX2IP pseudogene 1) | 1 | -0.984 | -3.95 | 1.99 | inactive
SSX2IPP1 (SSX2IP pseudogene 1) | 2 | -0.645 | -1.57 | 3.04 | inactive
SSX2IPP1 (SSX2IP pseudogene 1) | 3 | 3.23 | 25.7 | 12.5 | inactive
SH3PXD2B (SH3 and PX domains 2B) | 1 | -0.441 | -0.133 | 3.59 | inactive
SH3PXD2B (SH3 and PX domains 2B) | 2 | -0.531 | -0.769 | 2.75 | inactive
SH3PXD2B (SH3 and PX domains 2B) | 3 | -1.21 | -5.54 | 1.58 | inactive
NR1H2 (nuclear receptor subfamily 1 group H member 2) | 1 | 0.851 | 8.95 | 8.69 | inactive
NR1H2 (nuclear receptor subfamily 1 group H member 2) | 2 | -0.304 | 0.826 | 4.83 | inactive
NR1H2 (nuclear receptor subfamily 1 group H member 2) | 3 | -0.293 | 0.909 | 4.26 | inactive
ANKRD11 (ankyrin repeat domain 11) | 1 | 0.394 | 5.74 | 6.05 | inactive
ANKRD11 (ankyrin repeat domain 11) | 2 | 1.73 | 15.1 | 10.3 | inactive
ANKRD11 (ankyrin repeat domain 11) | 3 | 2.83 | 22.9 | 10.5 | inactive
RPS6KA6 (ribosomal protein S6 kinase A6) | 1 | 0.42 | 5.92 | 7.34 | inactive
RPS6KA6 (ribosomal protein S6 kinase A6) | 2 | 1.74 | 15.2 | 10.3 | inactive
RPS6KA6 (ribosomal protein S6 kinase A6) | 3 | 5.39 | 40.9 | 16.8 | active
BCAS1 (brain enriched myelin associated protein 1) | 1 | 5.57 | 42.2 | 23.8 | active
BCAS1 (brain enriched myelin associated protein 1) | 2 | 1 | 10 | 7.87 | inactive
BCAS1 (brain enriched myelin associated protein 1) | 3 | -0.542 | -0.843 | 3.05 | inactive
OR6V1 (olfactory receptor family 6 subfamily V member 1) | 1 | 0.418 | 5.91 | 6.02 | inactive
OR6V1 (olfactory receptor family 6 subfamily V member 1) | 2 | 0.941 | 9.59 | 7.45 | inactive
OR6V1 (olfactory receptor family 6 subfamily V member 1) | 3 | 0.331 | 5.29 | 6.32 | inactive
ENDOG (endonuclease G) | 1 | -0.862 | -3.1 | 2.55 | inactive
ENDOG (endonuclease G) | 2 | 0.734 | 8.13 | 8.19 | inactive
ENDOG (endonuclease G) | 3 | 0.201 | 4.38 | 6.93 | inactive
PRAMEF7 (PRAME family member 7) | 1 | -1.12 | -4.93 | 1.72 | inactive
PRAMEF7 (PRAME family member 7) | 2 | 2.97 | 23.9 | 12.5 | inactive
PRAMEF7 (PRAME family member 7) | 3 | -0.812 | -2.75 | 2.19 | inactive
SLC44A3 | 1 | -0.0179 | 2.84 | 5.25 | inactive
SLC44A3 | 2 | 0.847 | 8.92 | 5.93 | inactive
SLC44A3 | 3 | -0.537 | -0.808 | 2.29 | inactive
MUSK (muscle associated receptor tyrosine kinase) | 1 | -0.0685 | 2.49 | 4.9 | inactive
MUSK (muscle associated receptor tyrosine kinase) | 2 | -0.252 | 1.2 | 6 | inactive
MUSK (muscle associated receptor tyrosine kinase) | 3 | -0.306 | 0.813 | 5.68 | inactive
UHRF2 (ubiquitin like with PHD and ring finger domains 2) | 1 | 0.193 | 4.32 | 4.58 | inactive
UHRF2 (ubiquitin like with PHD and ring finger domains 2) | 2 | -0.638 | -1.52 | 2.64 | inactive
UHRF2 (ubiquitin like with PHD and ring finger domains 2) | 3 | -0.137 | 2.01 | 4.23 | inactive

Called active, among the entries above:
target | reagent no. | G2 robust z-score | G2 cells, % of GMNN control | raw share of cells in G2 (%) | Call
ZDHHC17 (zDHHC palmitoyltransferase 17) | 3 | 7.63 | 56.6 | 23.3 | active
RPS6KA6 (ribosomal protein S6 kinase A6) | 3 | 5.39 | 40.9 | 16.8 | active
BCAS1 (brain enriched myelin associated protein 1) | 1 | 5.57 | 42.2 | 23.8 | active
